Data published in patent US6632794B1, “Insulin-like growth factor agonist molecules” (Genentech, Inc., priority 1997, dated 2003).

System: human Type II diabetics
Assay: Treatment of human Type II diabetics with rhIGF-I, blood IGF-I, IGF-II, IGFBP-3
Assay type: in vivo
Settings: 12 weeks

Substance: IGF-I: native-sequence recombinant human insulin-like growth factor-I (Genentech)
- concentrations of IGF-I in the blood (40 and 80 μg/kg twice daily): the same total blood concentration of IGF-I was reached with these two doses
- concentrations of IGF-II in the blood (rhIGF-I twice daily): fell
- concentrations of IGFBP-3 in the blood (rhIGF-I twice daily): no statistically significant or clear pattern of change
